The test system of the assay is P388 leukemia ip, CD2F1 mice, survival T/C. Briefly: NCI In Vivo Anticancer Drug Screen. Data for tumor model P388 Leukemia (intraperitoneal) in CD2F1 (CDF1) mice. The note with it: T/C endpoint: median survival time, higher T/C = longer survival.
Where [1] appears, read: dose: 200.0 mg/kg/injection, schedule: Q01DX005 (ip), vehicle: saline with Tween-80.
Setting [2] is: dose: 240.0 mg/kg/injection, schedule: Q01DX005 (ip), vehicle: saline with Tween-80.
Where [3] appears, read: dose: 200.0 mg/kg/injection, schedule: Q01DX009 (ip), vehicle: Klucel (hydroxypropylcellulose) (HPC).
[4] abbreviates: dose: 400.0 mg/kg/injection, schedule: Q01DX001 (ip), vehicle: saline with Tween-80.
The mark [5] stands for this setting: dose: 50.0 mg/kg/injection, schedule: Q01DX005 (ip), vehicle: Klucel (hydroxypropylcellulose) (HPC).
The mark [6] stands for this setting: dose: 100.0 mg/kg/injection, schedule: Q01DX005 (ip), vehicle: Klucel (hydroxypropylcellulose) (HPC).
Setting [7] is: dose: 200.0 mg/kg/injection, schedule: Q01DX005 (ip), vehicle: Klucel (hydroxypropylcellulose) (HPC).
Where [8] appears, read: dose: 240.0 mg/kg/injection, schedule: Q01DX005 (ip), vehicle: Klucel (hydroxypropylcellulose) (HPC).
Where [9] appears, read: dose: 50.0 mg/kg/injection, schedule: Q01DX005 (ip), vehicle: saline with Tween-80.
Setting [10] is: dose: 100.0 mg/kg/injection, schedule: Q01DX005 (ip), vehicle: saline with Tween-80.
[11] abbreviates: dose: 100.0 mg/kg/injection, schedule: Q01DX009 (ip), vehicle: saline with Tween-80.
Setting [12] is: dose: 200.0 mg/kg/injection, schedule: Q01DX009 (ip), vehicle: saline with Tween-80.

The list shows only some results of the screen, not a fair sample: it gathers tests that were run many times, whatever their T/C, doses with no T/C, and many T/C values between a quarter and a half above the control. Other doses and runs of a compound stand elsewhere. T/C is the treated group as % of the vehicle group. Some entries give survivors of the animals treated and no T/C: the source files T/C as zero there, which appears to mark a toxic dose or a test without result, not a measured value. Some doses without a T/C left all or most animals alive at the check, yet need not have been tolerated: the source hardly ever lists a survival T/C far under the control, and the zero likely stands for such cases as well. Survivors were counted at the toxicity check, usually on the fifth day, unless a day is given; later deaths do not show. Schedule codes are those of the source, read here as Q, the interval in days (D) or hours (H), X, the number of doses. Some entries hold several experiments; their values stand side by side, smallest first. Some structures stand for samples that the source files as different forms (salt, stereo form or complex); doses refer to the form tested. Brackets with × give the number of equal values in this list. For survival time, this PubChem deposit counts one and a half times the control or more as active, and values a quarter to a half above the control carry no call in these data; other NCI protocols may use other cut-offs.

Regarding `COc1cc2c(C)cc(=O)oc2c(OCC(O)CN2CCCC2)c1OC` (centres undefined), the survivor count (dose: 240.0 mg/kg/injection, schedule: Q01DX005 (ip), vehicle: saline) was 0 of 6.

In the case of `C/C=C1\CN2CCc3c([nH]c4ccccc34)C2CC1C1=CN2c3ccccc3C34CCN5CC6=CCOC1C(C6CC53)C24` (centres undefined), the survivor count (dose: 19.0 mg/kg/injection, schedule: Q01DX005 (ip), vehicle: Klucel (hydroxypropylcellulose) (HPC)) was 6 of 6.

As to `Nc1ncnc2nc(N=Nc3c(O)ccc4ccccc34)[nH]c12`, under setting [1], the survivor count was 0 of 5.

As to `O=C1C=C(NCC2CCCN3CCCCC23)C(=O)c2ccccc21` (centres undefined), under “dose: 378.5 mg/kg/injection, schedule: Q04DX002 (ip), vehicle: Klucel (hydroxypropylcellulose) (HPC)”, the survivor count is given as 0 of 6.

Consider `O=C(O)/C(Cl)=C(\Cl)C(=O)Nc1c(Cl)cccc1Cl`, for which, under setting [2], the survivor count is on record as 0 of 6.

In the case of `CC(=O)OC1CC(n2cc(C)c(=O)[nH]c2=O)OC1COP(=O)(N1CC1(C)C)N1CC1(C)C` (centres undefined), the T/C reads like this: (dose: 50.0 mg/kg/injection, schedule: Q04DX003 (ip), vehicle: saline with Tween-80) 138 % of control; (dose: 100.0 mg/kg/injection, schedule: Q04DX003 (ip), vehicle: saline with Tween-80) 141 % of control.

Take `NC(=O)c1cc([N+](=O)[O-])cc([N+](=O)[O-])c1`: under setting [3], the survivor count is reported as 1 of 6.

With `Nc1ccc(-c2nc3ccccc3c(=O)[nH]2)cc1`, the T/C (dose: 50.0 mg/kg/injection, schedule: Q01DX009 (ip), vehicle: Klucel (hydroxypropylcellulose) (HPC)) is given as 91, 92, 95, 111 % of control. The survivor count under setting [3] is 4 of 6 and 6 of 6.

In the case of `CCOC(=O)Sc1ncnc2nc[nH]c12`, for the setting “dose: 400.0 mg/kg/injection, schedule: Q04DX003 (ip), vehicle: saline with Tween-80”, the survivor count is on record as 5 of 6.

With `Cc1cc2nc(CN(CCN(Cc3nc4cc(C)c(C)cc4[nH]3)Cc3nc4cc(C)c(C)cc4[nH]3)Cc3nc4cc(C)c(C)cc4[nH]3)[nH]c2cc1C`, the survivor count is given as 2 of 6 (dose: 100.0 mg/kg/injection, schedule: Q01DX001 (ip), vehicle: saline with Tween-80); 0 of 6 (dose: 200.0 mg/kg/injection, schedule: Q01DX001 (ip), vehicle: saline with Tween-80); 0 of 6 under setting [4].

For the compound `CCNc1nn2ccccc2c1/C=C(/C#N)C(=O)OCC`, the survivor count under setting [4] was 6 of 6.

For the compound `O=C1c2c(Cl)c(Cl)c(Cl)c(Cl)c2C(=O)C2(Cl)CC=CCC12Cl` (centres undefined), the survivor count runs as follows: under setting [5], 5 of 5; under setting [6], 4 of 5; under setting [7], 1 of 5.

For the compound `CC1=C(C(=O)Nc2cc(C)ccc2C)C(c2cccc([N+](=O)[O-])c2)C(C(=O)Nc2cc(C)ccc2C)=C(C)N1`, under setting [8], the survivor count is reported as 6 of 6.

Consider `CN(C)CCN(Cc1ccco1)c1ccccn1`, for which the survivor count was 2 of 6 and 4 of 5 under setting [9]; 0 of 5 under setting [10]; 0 of 5 and 1 of 5 (dose: 100.0 mg/kg/injection, schedule: Q01DX005 (ip), vehicle: saline); 0 of 5 under setting [1]; 0 of 5 (2×) (dose: 200.0 mg/kg/injection, schedule: Q01DX005 (ip), vehicle: saline).

Regarding `NC1[N-]C(C2CCCC[N-]2)CC2CCCCC21.NC1[N-]C(C2CCCC[N-]2)CC2CCCCC21.O=[N+]([O-])O.[Cu+]` (centres undefined), the survivor count is, setting by setting: (dose: 100.0 mg/kg/injection, schedule: Q04DX002 (ip), vehicle: suspension in saline) 0 of 6; (dose: 200.0 mg/kg/injection, schedule: Q04DX002 (ip), vehicle: suspension in saline) 0 of 6; (dose: 400.0 mg/kg/injection, schedule: Q04DX002 (ip), vehicle: suspension in saline) 0 of 6.

In the case of `C/C(=N\NC(=S)/N=c1\sccn1Cc1ccccc1)c1ccccn1`, the T/C is, setting by setting: (dose: 12.5 mg/kg/injection, schedule: Q01DX005 (ip), vehicle: saline with Tween-80) 125 and 134 % of control; (dose: 25.0 mg/kg/injection, schedule: Q01DX005 (ip), vehicle: saline with Tween-80) 135 and 137 % of control; under setting [9], 146 % of control. Moreover, the survivor count is 5 of 6 under setting [9], 4 of 6 under setting [10] and 4 of 6 under setting [1].

For the compound `N=C(N)c1ccc(N=Nc2ccc(N)cc2N)cc1`, the survivor count under setting [8] is reported as 3 of 6.

With `Cc1ccc(Nc2ccc(Cl)cc2[N+](=O)[O-])cc1`, the survivor count is, setting by setting: (dose: 120.0 mg/kg/injection, schedule: Q01DX005 (ip), vehicle: Klucel + Tween-80) 1 of 6; (dose: 240.0 mg/kg/injection, schedule: Q01DX005 (ip), vehicle: Klucel + Tween-80) 0 of 6.

Regarding `CC1(C)CCC[C@]2(C)[C@@H](C=O)C(C=O)=CC[C@@H]12`, the survivor count by setting is: (dose: 25.0 mg/kg/injection, schedule: Q01DX005 (ip), vehicle: Klucel (hydroxypropylcellulose) (HPC)) 3 of 6 and 4 of 6; under setting [5], 1 of 6; under setting [6], 0 of 6; under setting [7], 0 of 5.

`O=C1C2CCC(C2)C1CN1CCCCC1` (centres undefined): the survivor count by setting is: under setting [9], 2 of 6; under setting [10], 0 of 6; under setting [1], 0 of 6.

As for `O=c1nc2n(c3ncccc13)CC=NN2`, the survivor count under setting [2] was 3 of 6.

With `COc1cc2c(cc1O)c[n+](C)c1c3cc(OC)c(OC)cc3ccc21`, for the setting “dose: 15.6 mg/kg/injection, schedule: Q01DX009 (ip), vehicle: other”, the T/C was 129 % of control.

As to `N#Cc1c(=O)[nH]c(=O)n2c1[nH]c1ccccc12`, the survivor count by setting is: (dose: 120.0 mg/kg/injection, schedule: Q01DX005 (ip), vehicle: saline with Tween-80) 1 of 6; under setting [2], 1 of 6.

Regarding `Clc1cc(Cl)c(Cl)nn1`, under setting [3], the survivor count is 0 of 6.

As for `COc1cc2c(cc1OC)C(Cc1ccsc1)NCC2` (centres undefined), under “dose: 200.0 mg/kg/injection, schedule: Q04DX002 (ip), vehicle: Klucel (hydroxypropylcellulose) (HPC)”, the survivor count is recorded as 0 of 5.

With `CC(C)COC1CC(C)(C)c2c(-c3ccccc3)nn(-c3ccccc3)c2O1` (centres undefined), the survivor count runs as follows: under setting [11], 6 of 6; under setting [12], 1 of 6.

As to `COc1cc(C2CC(C)(N3CCCC3)Oc3cc4c(cc32)OCO4)cc(OC)c1OC` (centres undefined), the survivor count by setting is: (dose: 30.0 mg/kg/injection, schedule: Q01DX005 (ip), vehicle: Klucel (hydroxypropylcellulose) (HPC)) 6 of 6; under setting [8], 6 of 6. Also, the T/C (dose: 120.0 mg/kg/injection, schedule: Q01DX005 (ip), vehicle: Klucel (hydroxypropylcellulose) (HPC)) was 125 and 138 % of control.

Regarding `O=c1[nH]c(=S)[nH]c2c(=O)[nH]c(=S)[nH]c12`, the survivor count reads like this: (dose: 100.0 mg/kg/injection, schedule: Q01DX009 (ip), vehicle: Klucel (hydroxypropylcellulose) (HPC)) 6 of 6; under setting [3], 5 of 6.

On to `O=Cc1ccc([N+](=O)[O-])s1`, for which the T/C runs as follows: (dose: 6.25 mg/kg/injection, schedule: Q01DX009 (ip), vehicle: saline) 107, 113, 123, 184 % of control; (dose: 12.5 mg/kg/injection, schedule: Q01DX009 (ip), vehicle: saline) 116, 124, 138, 205 % of control; (dose: 25.0 mg/kg/injection, schedule: Q01DX009 (ip), vehicle: saline) 131, 140, 147, 236 % of control; (dose: 50.0 mg/kg/injection, schedule: Q01DX009 (ip), vehicle: saline) 130 and 131 % of control. The survivor count under setting [11] is on record as 0 of 6; the survivor count under setting [12] was 0 of 6; the survivor count (dose: 400.0 mg/kg/injection, schedule: Q01DX009 (ip), vehicle: saline with Tween-80) is given as 0 of 6.

With `N=C(N)c1cccc([N+](=O)[O-])c1`, the survivor count (dose: 200.0 mg/kg/injection, schedule: Q01DX009 (ip), vehicle: saline) is on record as 0 of 6.

Values taken from PubChem BioAssay AID330 (DTP/NCI, 2004).
